Substitutions are numbered along the chain they refer to. Results are given in words; binding and its absence hold for the method and conditions named. Binding seen in cells or lysates may run through a third protein. Some results given as binding are weak or reduced against the parent protein; the word gives no strength. For some assays here: Sequences can lack the tags named with a protein.
Legend:
[1] = biological target: T1, Siglec-15-flag (sialic acid-binding immunoglobulin-like receptor 15, full length) (human) (UniProt Q6ZMC9); assay: co-IP; immunoprecipitation of flag in lysates from Siglec-15-flag (or R143A, N172Q) Daoy cells, immunoblot
T1 sequence: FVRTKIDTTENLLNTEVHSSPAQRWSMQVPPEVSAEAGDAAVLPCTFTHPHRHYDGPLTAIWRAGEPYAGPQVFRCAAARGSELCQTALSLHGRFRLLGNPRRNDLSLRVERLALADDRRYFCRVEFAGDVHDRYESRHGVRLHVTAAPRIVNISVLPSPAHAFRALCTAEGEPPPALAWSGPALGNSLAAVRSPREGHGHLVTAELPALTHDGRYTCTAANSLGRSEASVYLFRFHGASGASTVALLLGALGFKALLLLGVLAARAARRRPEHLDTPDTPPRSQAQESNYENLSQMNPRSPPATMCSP

The chains behind the UniProt entries cited, without tags or fusion partners. Residues count along the entry.
UniProt P11717, residues 41-2491: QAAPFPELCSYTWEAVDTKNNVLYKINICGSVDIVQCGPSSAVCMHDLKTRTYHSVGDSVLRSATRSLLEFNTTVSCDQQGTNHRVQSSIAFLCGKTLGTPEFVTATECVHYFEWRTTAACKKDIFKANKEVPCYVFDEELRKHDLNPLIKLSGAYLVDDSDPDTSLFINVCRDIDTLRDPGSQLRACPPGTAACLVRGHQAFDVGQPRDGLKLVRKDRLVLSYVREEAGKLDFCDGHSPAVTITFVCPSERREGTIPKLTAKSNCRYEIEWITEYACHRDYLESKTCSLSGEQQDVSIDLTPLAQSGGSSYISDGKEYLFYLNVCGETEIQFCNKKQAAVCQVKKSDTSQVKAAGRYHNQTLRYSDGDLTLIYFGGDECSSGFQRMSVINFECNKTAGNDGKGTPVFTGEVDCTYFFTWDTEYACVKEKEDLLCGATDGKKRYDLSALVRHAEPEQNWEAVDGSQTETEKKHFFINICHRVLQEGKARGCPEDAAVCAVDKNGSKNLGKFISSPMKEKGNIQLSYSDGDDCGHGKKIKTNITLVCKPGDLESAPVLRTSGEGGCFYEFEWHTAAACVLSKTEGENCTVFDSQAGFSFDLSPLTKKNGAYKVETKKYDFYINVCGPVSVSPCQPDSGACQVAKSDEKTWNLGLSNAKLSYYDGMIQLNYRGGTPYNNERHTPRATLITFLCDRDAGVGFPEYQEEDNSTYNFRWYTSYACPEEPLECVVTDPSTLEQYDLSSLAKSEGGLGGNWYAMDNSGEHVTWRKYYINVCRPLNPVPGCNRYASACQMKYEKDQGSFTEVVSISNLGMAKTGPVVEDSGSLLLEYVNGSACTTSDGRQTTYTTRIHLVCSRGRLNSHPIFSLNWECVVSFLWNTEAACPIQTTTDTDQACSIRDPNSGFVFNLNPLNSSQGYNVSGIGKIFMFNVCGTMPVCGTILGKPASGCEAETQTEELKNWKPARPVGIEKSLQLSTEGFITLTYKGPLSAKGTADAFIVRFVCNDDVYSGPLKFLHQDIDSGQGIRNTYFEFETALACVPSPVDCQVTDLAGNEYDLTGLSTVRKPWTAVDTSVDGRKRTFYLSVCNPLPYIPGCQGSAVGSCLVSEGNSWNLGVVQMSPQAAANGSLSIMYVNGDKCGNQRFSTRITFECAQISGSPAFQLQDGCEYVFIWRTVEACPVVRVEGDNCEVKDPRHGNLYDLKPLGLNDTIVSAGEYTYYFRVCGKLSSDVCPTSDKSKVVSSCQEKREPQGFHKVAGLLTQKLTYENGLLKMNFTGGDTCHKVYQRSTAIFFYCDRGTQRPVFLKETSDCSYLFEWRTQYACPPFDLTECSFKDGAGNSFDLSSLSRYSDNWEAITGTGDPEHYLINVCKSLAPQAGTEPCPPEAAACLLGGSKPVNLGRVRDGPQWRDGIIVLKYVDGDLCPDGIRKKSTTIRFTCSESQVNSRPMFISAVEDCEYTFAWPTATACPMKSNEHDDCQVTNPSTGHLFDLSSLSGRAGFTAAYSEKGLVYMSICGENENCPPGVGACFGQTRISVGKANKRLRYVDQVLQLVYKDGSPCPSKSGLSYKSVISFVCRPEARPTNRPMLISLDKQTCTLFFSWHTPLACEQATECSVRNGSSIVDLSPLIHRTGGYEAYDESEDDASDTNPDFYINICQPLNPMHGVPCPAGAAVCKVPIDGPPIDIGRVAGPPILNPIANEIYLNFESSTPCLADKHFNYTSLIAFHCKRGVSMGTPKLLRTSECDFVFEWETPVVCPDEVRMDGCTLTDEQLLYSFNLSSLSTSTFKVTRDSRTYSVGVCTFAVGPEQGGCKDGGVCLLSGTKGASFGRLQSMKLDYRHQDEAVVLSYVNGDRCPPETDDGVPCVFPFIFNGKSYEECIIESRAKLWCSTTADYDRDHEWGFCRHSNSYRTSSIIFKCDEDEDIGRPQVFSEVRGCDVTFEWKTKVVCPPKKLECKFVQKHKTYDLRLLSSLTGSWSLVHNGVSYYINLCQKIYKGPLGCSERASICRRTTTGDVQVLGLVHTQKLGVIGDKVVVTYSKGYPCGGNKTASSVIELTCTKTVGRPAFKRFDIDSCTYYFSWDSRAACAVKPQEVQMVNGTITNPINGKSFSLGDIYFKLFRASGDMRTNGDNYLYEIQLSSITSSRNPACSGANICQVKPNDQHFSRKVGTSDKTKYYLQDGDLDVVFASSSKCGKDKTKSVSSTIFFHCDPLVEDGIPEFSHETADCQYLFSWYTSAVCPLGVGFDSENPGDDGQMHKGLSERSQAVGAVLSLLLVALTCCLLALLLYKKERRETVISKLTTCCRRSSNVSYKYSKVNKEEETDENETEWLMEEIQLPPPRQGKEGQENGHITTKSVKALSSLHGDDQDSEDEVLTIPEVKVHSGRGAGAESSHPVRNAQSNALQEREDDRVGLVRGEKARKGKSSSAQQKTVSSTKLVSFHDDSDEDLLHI
UniProt Q9GZU1: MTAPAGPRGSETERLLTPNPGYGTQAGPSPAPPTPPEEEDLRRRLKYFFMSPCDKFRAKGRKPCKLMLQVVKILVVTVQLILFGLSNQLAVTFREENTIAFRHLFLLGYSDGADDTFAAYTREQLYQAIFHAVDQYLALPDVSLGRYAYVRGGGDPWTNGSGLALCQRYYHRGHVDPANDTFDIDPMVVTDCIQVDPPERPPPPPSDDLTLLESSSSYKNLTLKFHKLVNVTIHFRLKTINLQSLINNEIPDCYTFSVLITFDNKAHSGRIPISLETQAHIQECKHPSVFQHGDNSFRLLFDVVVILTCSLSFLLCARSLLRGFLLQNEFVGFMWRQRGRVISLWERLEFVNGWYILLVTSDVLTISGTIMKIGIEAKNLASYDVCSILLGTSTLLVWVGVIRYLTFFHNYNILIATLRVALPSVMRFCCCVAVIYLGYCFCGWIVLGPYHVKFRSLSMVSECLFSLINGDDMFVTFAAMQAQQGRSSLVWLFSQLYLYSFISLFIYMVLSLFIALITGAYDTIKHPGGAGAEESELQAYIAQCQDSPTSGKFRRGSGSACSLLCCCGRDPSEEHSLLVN

Siglec-15-R143A (human) = biological target: T2, Siglec-15-R143A (human) (UniProt Q6ZMC9); assay: as above
T2 sequence: T1 sequence with R124A

[2] = biological target: T3, Siglec-15-ED-flag (human) (UniProt Q6ZMC9); assay: co-IP; truncated forms of Siglec-15 and TRPML1; cells not given
T3 sequence: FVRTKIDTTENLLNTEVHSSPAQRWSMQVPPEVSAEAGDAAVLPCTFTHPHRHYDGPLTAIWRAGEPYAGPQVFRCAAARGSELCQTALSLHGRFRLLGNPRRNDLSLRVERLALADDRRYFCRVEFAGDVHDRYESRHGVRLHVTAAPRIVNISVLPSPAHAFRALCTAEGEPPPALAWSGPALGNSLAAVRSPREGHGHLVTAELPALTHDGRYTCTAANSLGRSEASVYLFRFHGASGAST

[3] = biological target: T1, Siglec-15-flag (sialic acid-binding immunoglobulin-like receptor 15, full length) (human); assay: as above

| binding [1] | binding (Siglec-15-R143A (human)) | binding [2] | binding [3] | Substance |
| --- | --- | --- | --- | --- |
| binds | binds |  |  | cation-independent mannose 6-phosphate receptor (CI-MPR) (from UniProt P11717 41-2491) |
| binds |  | binds | binds | mucolipin TRP cation channel 1 (TRPML1) (from UniProt Q9GZU1 1-580) |

Source: article PMC13161473 (2025)
